In patent US10441616B2, “Pharmaceutical composition for treating or preventing sensorineural hearing loss, containing cysteinyl leukotriene receptor antagonist and ginkgo leaf extract” (AJOU UNIVERSITY INDUSTRY-ACADEMIC COOPERATION FOUNDATION, priority 2014, dated 2019):

Legend:
[1] = tested on: noise-induced injury of the cochlea; experiment: Auditory brainstem response (ABR) hearing threshold shift after noise exposure, montelukast post-treatment; format: in vivo, BALB/c mouse; details: ABR at 14 day of noise exposure; montelukast administrated for 4 days; compared with only-noise exposure group
Method: Noise stimuli were applied based on 0 day, montelukast was treated for 3 days, mice were sacrificed at 1 day, 3 day, 7 day, and 14 day, and then the changes thereof were observed. Immunohistochemistry, PCR, and a western blot test for examining changes in receptor expression levels by using tissues obtained at a noise stimulation test day, 1 day, 3 day, and 7 day were performed, respectively. Changes in permanent hearing threshold immediately before scarifying the mouse were verified by an auditory brainstem response test at 14 day and thereafter, a surface preparation method and a scanning electron microscopy test for evaluating the tissue damage were performed. […]
Whether the montelukast prevented noise-induced injury of the cochlea was evaluated (see FIGS. 5A and 5B). […] ABR measurement was performed by the existing method, and hearing was evaluated by a Biosig 32 ABR system (Tucker-Davis Technologies, Gainesville, Fla.). […] A brainstem response was percutaneously recorded by using sterile electrode needle. A reference electrode was inserted behind the ear to be measured and active electrodes were inserted behind the opposite ear and the skin of the head. […] At each frequency, averages of 1,000 stimuli were collected and respective results were recorded and stored. […] The ABR for 16 and 32 kHz stimuli was recorded before exposure of the noise and at 1 day and 14 day for exposure of the noise. […]

[2] = tested on: noise-induced injury of the cochlea; experiment: Hearing threshold shift with co-administration of montelukast and Ginkgo biloba extract (ABR as in Example 3); format: in vivo, mouse; details: montelukast 10 mg/kg, EgB 32.4 mg/kg orally; compared with only-noise treatment (FIG. 11)
[3] = 10 mg/kg

## CC(C)(O)c1ccccc1CCC(SCC1(CC(=O)[O-])CC1)c1cccc(/C=C/c2ccc3ccc(Cl)cc3n2)c1.[Na+] (stereo not drawn) [montelukast]
[1]
  reduction of permanent threshold shift (PTS): approximately 50%
[2]
  hearing protection effect (hearing threshold shift): hearing protection effect was shown
[3]
  toxicity of concentration used: non-toxic level
